Measurements reported in patent publication US20230047208A1, “RNA Splicing Modulation” (The General Hospital Corporation, priority 2020, published 2023).
This continues a long series; more values of the same kind are listed elsewhere.

System: wildtype (WT) human fibroblast cell lines
Assay: Transcriptome-wide splicing by RNA sequencing (RNASeq), exon triplet PSI change;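 on Effect: six WT fibroblast lines treated seven days versus DMSO vehicle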;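 on T-PSI: T-PSI is average treated PSI after seven days of treatment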
Type: cell-based
Set-up: key to Effect: Exclusion; Inclusion; Unchanged
Details: seven days
Description: FIG. 2A provides a representation of an exon triplet. Exon U is upstream of Exon X, which is upstream of Exon D. R1, R2 and R3 represent RNA sequencing (RNASeq) reads spanning the regions between two adjacent exons. UI1, I1X, XI2 and I2D are four regions flanking the four splice sites of the exon-triplet. Each flanking region consists of 25 exonic base pairs and 75 intronic base pairs.
FIG. 2B provides a volcano plot showing the ψ (PSI: Percent Spliced-In) changes in splicing after treatment with Compound (I). Each dot represents one of the 161,097 expressed exon triplets in human fibroblasts. The x axis represents the ψ changes after treatment and the y axis represents the False Discovery Rate (FDR) (log 10 transformed). […] The horizontal dashed line indicates an FDR of 0.1. The dots on the right side of the right vertical dashed line and above the horizontal dashed line represent the exon-triplets with an increase for Exon X inclusion (Δψ≥0.1 and FDR<0.1) while the dots on left side of the left vertical dashed line and above the horizontal dashed line represent an increase for Exon X exclusion (Δψ≤−0.1 and FDR<0.1). Black dots in-between the two vertical dashed lines represent exon-triplets unchanged from the treatment.
In some aspects, analysis is performed on data derived from the assay to measure the magnitude of splicing to determine the amount of exons spliced into an mRNA transcript that is produced in the presence of Compound (I) relative to the amount in the absence of Compound (I) or presence of a negative control. In a preferred aspect, the method utilized is calculation of change in Percent Spliced In (ΔPSI). […] The ΔPSI value is derived from the formula: […]
The values for “a” and “b” represent the number of reads supporting the probability for potential inclusion or exclusion of an exon in an RNA transcript. The “a” value is derived from the number of reads within an exon triplet covering, in 5′ to 3′ order: the last few bases (>1 nucleotide) of an upstream exon operably linked to the first few bases (>1 nucleotide) of a middle exon. The “b” value is derived from the number of reads within an exon triplet covering, in 5′ to 3′ order: the last few bases (>1 nucleotide) of the middle exon operably linked to the first few bases (>1 nucleotide) of a downstream exon. The number of reads will indicate whether the splice junction of a middle exon has been identified as potentially having a CNN Motif(s) by the CNN Model described herein, wherein the inclusion or exclusion of the middle exon may be modulated in the presence of Compound (I) to produce one or more mature RNA isoforms from the gene transcript. The value for “c” represents the number of reads supporting the exclusion of the middle exon.
The effect on splicing modulation and corresponding splice differences toward exon inclusion or exclusion was determined by counting the RNASeq reads covering two splice junctions of exon triplets (three consecutive exons: Exon U, Exon X, Exon D) and the corresponding intervening introns, then comparing the change in Percent Spliced In (ΔPSI or Δψ) of the middle exon (Exon X) after treatment (as shown in FIG. 2A)^52,53. 934 exon triplets were identified showing differential middle exon inclusion or exclusion in response to Compound (I) treatment. Of these, 254 were exon inclusion events (Δψ≥0.1 and FDR<0.1) and 680 were exon exclusion events (Δψ≤−0.1 and FDR<0.1) (as shown in FIG. 2B). […] The splicing results were evaluated by RT-PCR in independent replicate experiments, confirming all the calculated Δψ values. […]

[1] = SMARCA1 Exon 128627017-128627052
[2] = SMPDL3A Exon 123116822-123117035
[3] = SNRPA1 Exon 101826419-101826498

With Clc1nc(NCc2ccncc2)c2cc[nH]c2n1 [Compound (I), 2-chloro-N-(pyridin-4-ylmethyl)-7H-pyrrolo[2,3-d]pyrimidin-4-amine] the Effect (SLMAP Exon 57893611-57893733) was “Unc”, the T-PSI (SLMAP Exon 57893611-57893733) was 0.899 and the ΔPSI (SLMAP Exon 57893611-57893733) was 0.000. For the same molecule, the Effect (SLMO1 Exon 12427040-12427110) was “Exc”, the T-PSI (SLMO1 Exon 12427040-12427110) was 0.854 and the ΔPSI (SLMO1 Exon 12427040-12427110) was −0.130. The Effect (SLTM Exon 59191668-59192082) was “Unc”, the T-PSI (SLTM Exon 59191668-59192082) was 0.731 and the ΔPSI (SLTM Exon 59191668-59192082) was 0.001. For the same molecule, the Effect (SLTM Exon 59191668-59192136) was “Unc”, the T-PSI (SLTM Exon 59191668-59192136) was 0.763 and the ΔPSI (SLTM Exon 59191668-59192136) was −0.007. The Effect (SLTM Exon 59204762-59204809) was “Inc”, the T-PSI (SLTM Exon 59204762-59204809) was 0.928 and the ΔPSI (SLTM Exon 59204762-59204809) was 0.104. For the same molecule, the Effect (SMAD5 Exon 135483521-135483595) was “Exc”, the T-PSI (SMAD5 Exon 135483521-135483595) was 0.590 and the ΔPSI (SMAD5 Exon 135483521-135483595) was −0.197. The Effect [1] was “Inc”, the T-PSI [1] was 0.870 and the ΔPSI [1] was 0.253. The Effect (SMARCD1 Exon 50481146-50481268) was “Exc”, the T-PSI (SMARCD1 Exon 50481146-50481268) was 0.548 and the ΔPSI (SMARCD1 Exon 50481146-50481268) was −0.252. The Effect (SMC5 Exon 72882839-72882891) was “Exc”, the T-PSI (SMC5 Exon 72882839-72882891) was 0.854 and the ΔPSI (SMC5 Exon 72882839-72882891) was −0.125. For the same molecule, the Effect (SMEK2 Exon 55800755-55800913) was “Exc”, the T-PSI (SMEK2 Exon 55800755-55800913) was 0.819 and the ΔPSI (SMEK2 Exon 55800755-55800913) was −0.136. For the same molecule, the Effect (SMEK2 Exon 55805383-55805478) was “Unc”, the T-PSI (SMEK2 Exon 55805383-55805478) was 0.445 and the ΔPSI (SMEK2 Exon 55805383-55805478) was −0.005. The Effect (SMG7 Exon 183471388-183471526) was “Unc”, the T-PSI (SMG7 Exon 183471388-183471526) was 0.200 and the ΔPSI (SMG7 Exon 183471388-183471526) was −0.006. For the same molecule, the Effect [2] was “Exc”, the T-PSI [2] was 0.702 and the ΔPSI [2] was −0.152. The Effect (SMURF2 Exon 62590109-62590222) was “Unc”, the T-PSI (SMURF2 Exon 62590109-62590222) was 0.111 and the ΔPSI (SMURF2 Exon 62590109-62590222) was −0.001. For the same molecule, the Effect (SMURF2 Exon 62602720-62602758) was “Exc”, the T-PSI (SMURF2 Exon 62602720-62602758) was 0.742 and the ΔPSI (SMURF2 Exon 62602720-62602758) was −0.150. For the same molecule, the Effect (SNAPC5 Exon 66787668-66787757) was “Exc”, the T-PSI (SNAPC5 Exon 66787668-66787757) was 0.646 and the ΔPSI (SNAPC5 Exon 66787668-66787757) was −0.133. The Effect (SNED1 Exon 242002208-242002321) was “Exc”, the T-PSI (SNED1 Exon 242002208-242002321) was 0.660 and the ΔPSI (SNED1 Exon 242002208-242002321) was −0.220. For the same molecule, the Effect (SNHG14 Exon 25330337-25330469) was “Unc”, the T-PSI (SNHG14 Exon 25330337-25330469) was 0.852 and the ΔPSI (SNHG14 Exon 25330337-25330469) was 0.001. The Effect (SNHG14 Exon 25360446-25360803) was “Exc”, the T-PSI (SNHG14 Exon 25360446-25360803) was 0.860 and the ΔPSI (SNHG14 Exon 25360446-25360803) was −0.119. For the same molecule, the Effect (SNHG15 Exon 45023956-45024025) was “Exc”, the T-PSI (SNHG15 Exon 45023956-45024025) was 0.832 and the ΔPSI (SNHG15 Exon 45023956-45024025) was −0.127. The Effect (SNRNP70 Exon 49605371-49605430) was “Inc”, the T-PSI (SNRNP70 Exon 49605371-49605430) was 0.302 and the ΔPSI (SNRNP70 Exon 49605371-49605430) was 0.102. The Effect (SNRNP70 Exon 49605371-49605442) was “Inc”, the T-PSI (SNRNP70 Exon 49605371-49605442) was 0.299 and the ΔPSI (SNRNP70 Exon 49605371-49605442) was 0.100. For the same molecule, the Effect (SNRNP70 Exon 49605371-49606844) was “Inc”, the T-PSI (SNRNP70 Exon 49605371-49606844) was 0.325 and the ΔPSI (SNRNP70 Exon 49605371-49606844) was 0.114. For the same molecule, the Effect [3] was “Exc”, the T-PSI [3] was 0.499 and the ΔPSI [3] was −0.209. The Effect (SNRPG Exon 70516482-70516504) was “Exc”, the T-PSI (SNRPG Exon 70516482-70516504) was 0.696 and the ΔPSI (SNRPG Exon 70516482-70516504) was −0.160. The Effect (SNX14 Exon 86248556-86248582) was “Exc”, the T-PSI (SNX14 Exon 86248556-86248582) was 0.668 and the ΔPSI (SNX14 Exon 86248556-86248582) was −0.160. For the same molecule, the Effect (SNX21 Exon 44468961-44469097) was “Exc”, the T-PSI (SNX21 Exon 44468961-44469097) was 0.167 and the ΔPSI (SNX21 Exon 44468961-44469097) was −0.148. For the same molecule, the Effect (SNX21 Exon 44469087-44469097) was “Exc”, the T-PSI (SNX21 Exon 44469087-44469097) was 0.263 and the ΔPSI (SNX21 Exon 44469087-44469097) was −0.160. The Effect (SPATA7 Exon 88859737-88859832) was “Inc”, the T-PSI (SPATA7 Exon 88859737-88859832) was 0.925 and the ΔPSI (SPATA7 Exon 88859737-88859832) was 0.255. The Effect (SPATA20 Exon 48625026-48625128) was “Exc”, the T-PSI (SPATA20 Exon 48625026-48625128) was 0.815 and the ΔPSI (SPATA20 Exon 48625026-48625128) was −0.133. The Effect (SPATA20 Exon 48625026-48625315) was “Exc”, the T-PSI (SPATA20 Exon 48625026-48625315) was 0.531 and the ΔPSI (SPATA20 Exon 48625026-48625315) was −0.259. The Effect (SPATA20 Exon 48625081-48625128) was “Exc”, the T-PSI (SPATA20 Exon 48625081-48625128) was 0.792 and the ΔPSI (SPATA20 Exon 48625081-48625128) was −0.151. For the same molecule, the Effect (SPATA20 Exon 48625081-48625315) was “Exc”, the T-PSI (SPATA20 Exon 48625081-48625315) was 0.347 and the ΔPSI (SPATA20 Exon 48625081-48625315) was −0.300. The Effect (SPATA20 Exon 48626647-48626848) was “Exc”, the T-PSI (SPATA20 Exon 48626647-48626848) was 0.856 and the ΔPSI (SPATA20 Exon 48626647-48626848) was −0.123. For the same molecule, the Effect (SPDL1 Exon 169017757-169017833) was “Inc”, the T-PSI (SPDL1 Exon 169017757-169017833) was 0.355 and the ΔPSI (SPDL1 Exon 169017757-169017833) was 0.248. The Effect (SPDL1 Exon 169017760-169017833) was “Inc”, the T-PSI (SPDL1 Exon 169017760-169017833) was 0.345 and the ΔPSI (SPDL1 Exon 169017760-169017833) was 0.241. The Effect (SPEN Exon 16202697-16203173) was “Unc”, the T-PSI (SPEN Exon 16202697-16203173) was 0.861 and the ΔPSI (SPEN Exon 16202697-16203173) was 0.002. For the same molecule, the Effect (SPIDR Exon 48320423-48320523) was “Unc”, the T-PSI (SPIDR Exon 48320423-48320523) was 0.878 and the ΔPSI (SPIDR Exon 48320423-48320523) was −0.007. The Effect (SPPL2A Exon 51018270-51018323) was “Inc” and the T-PSI (SPPL2A Exon 51018270-51018323) was 0.554.
